Sequences of proteins named here, by UniProt entry; tags and fusion partners are left off. A change or cut given only in a name is not applied to a line headed by its entry.
UniProt Q4X158: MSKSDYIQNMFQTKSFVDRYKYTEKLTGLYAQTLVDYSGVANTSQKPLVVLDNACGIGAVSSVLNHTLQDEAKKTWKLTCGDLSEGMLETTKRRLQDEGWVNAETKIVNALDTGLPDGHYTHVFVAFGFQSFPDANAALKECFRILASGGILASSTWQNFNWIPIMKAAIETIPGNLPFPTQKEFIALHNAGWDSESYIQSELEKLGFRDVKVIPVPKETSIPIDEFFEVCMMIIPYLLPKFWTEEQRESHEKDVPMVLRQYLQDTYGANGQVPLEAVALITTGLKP
UniProt Q4WM81: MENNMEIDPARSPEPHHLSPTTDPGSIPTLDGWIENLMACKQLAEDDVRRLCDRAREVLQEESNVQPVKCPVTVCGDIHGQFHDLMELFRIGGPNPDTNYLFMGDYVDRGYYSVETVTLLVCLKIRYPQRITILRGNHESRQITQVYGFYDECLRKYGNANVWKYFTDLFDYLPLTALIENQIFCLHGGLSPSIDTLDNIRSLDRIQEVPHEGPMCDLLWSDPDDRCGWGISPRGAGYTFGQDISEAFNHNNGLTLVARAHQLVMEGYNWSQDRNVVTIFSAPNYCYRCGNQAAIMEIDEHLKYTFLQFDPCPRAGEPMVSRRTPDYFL
UniProt Q4X0F2: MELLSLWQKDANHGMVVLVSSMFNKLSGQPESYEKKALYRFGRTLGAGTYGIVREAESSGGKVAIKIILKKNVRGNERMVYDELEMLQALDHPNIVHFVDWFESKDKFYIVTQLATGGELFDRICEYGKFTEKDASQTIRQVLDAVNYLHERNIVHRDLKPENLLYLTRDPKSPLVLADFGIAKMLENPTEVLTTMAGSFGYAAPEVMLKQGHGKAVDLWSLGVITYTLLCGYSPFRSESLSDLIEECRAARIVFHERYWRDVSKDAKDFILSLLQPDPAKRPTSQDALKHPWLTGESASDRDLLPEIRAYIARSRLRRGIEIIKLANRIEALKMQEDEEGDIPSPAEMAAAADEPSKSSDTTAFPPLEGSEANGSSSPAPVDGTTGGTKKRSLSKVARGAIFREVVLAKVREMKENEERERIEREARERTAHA
UniProt Q4WN17: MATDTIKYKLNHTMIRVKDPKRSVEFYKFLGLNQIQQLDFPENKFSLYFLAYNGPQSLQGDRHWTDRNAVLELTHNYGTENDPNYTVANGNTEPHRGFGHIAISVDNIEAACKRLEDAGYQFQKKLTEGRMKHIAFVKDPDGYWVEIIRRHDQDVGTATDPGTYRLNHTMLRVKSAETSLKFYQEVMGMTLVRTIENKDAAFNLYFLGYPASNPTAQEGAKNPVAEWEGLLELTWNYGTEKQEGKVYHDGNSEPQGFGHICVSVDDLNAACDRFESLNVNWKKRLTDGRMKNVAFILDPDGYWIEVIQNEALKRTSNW
UniProt Q4WXF4: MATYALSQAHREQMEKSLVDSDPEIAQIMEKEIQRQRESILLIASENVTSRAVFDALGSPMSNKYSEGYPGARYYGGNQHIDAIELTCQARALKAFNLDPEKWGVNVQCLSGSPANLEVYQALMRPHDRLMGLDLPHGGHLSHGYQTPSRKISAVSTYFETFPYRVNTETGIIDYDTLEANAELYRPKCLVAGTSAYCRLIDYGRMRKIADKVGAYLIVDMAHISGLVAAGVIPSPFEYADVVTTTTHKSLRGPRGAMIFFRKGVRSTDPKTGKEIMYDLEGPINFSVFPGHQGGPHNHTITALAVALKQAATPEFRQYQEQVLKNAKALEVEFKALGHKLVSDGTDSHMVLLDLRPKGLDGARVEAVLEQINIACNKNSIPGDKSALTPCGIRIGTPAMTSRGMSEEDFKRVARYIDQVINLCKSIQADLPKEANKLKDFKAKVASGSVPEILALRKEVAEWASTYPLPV
UniProt Q4WI09: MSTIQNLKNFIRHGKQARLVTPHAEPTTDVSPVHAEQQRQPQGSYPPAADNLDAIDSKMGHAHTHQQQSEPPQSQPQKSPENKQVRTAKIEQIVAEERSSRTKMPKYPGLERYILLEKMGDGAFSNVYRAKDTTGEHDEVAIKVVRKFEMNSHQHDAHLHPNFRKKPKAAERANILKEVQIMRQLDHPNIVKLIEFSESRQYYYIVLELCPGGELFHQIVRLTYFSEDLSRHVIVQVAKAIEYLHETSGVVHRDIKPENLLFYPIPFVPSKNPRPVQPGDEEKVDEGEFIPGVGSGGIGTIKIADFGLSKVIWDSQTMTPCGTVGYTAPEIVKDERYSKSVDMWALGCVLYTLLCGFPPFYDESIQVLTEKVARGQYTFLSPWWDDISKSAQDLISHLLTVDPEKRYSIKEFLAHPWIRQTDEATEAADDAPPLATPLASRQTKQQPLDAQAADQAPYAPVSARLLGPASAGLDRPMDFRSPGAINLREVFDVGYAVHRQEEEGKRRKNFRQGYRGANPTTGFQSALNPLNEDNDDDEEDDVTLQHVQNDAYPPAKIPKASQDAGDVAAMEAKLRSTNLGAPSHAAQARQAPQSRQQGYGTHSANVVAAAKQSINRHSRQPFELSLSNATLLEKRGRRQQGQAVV
UniProt Q4WY97: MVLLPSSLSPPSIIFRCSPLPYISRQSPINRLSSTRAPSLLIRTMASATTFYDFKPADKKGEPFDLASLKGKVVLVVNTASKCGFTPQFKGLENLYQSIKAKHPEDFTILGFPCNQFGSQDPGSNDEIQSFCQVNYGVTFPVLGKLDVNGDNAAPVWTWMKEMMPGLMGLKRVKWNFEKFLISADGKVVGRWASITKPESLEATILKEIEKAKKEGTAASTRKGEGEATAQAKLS
UniProt Q4WW00: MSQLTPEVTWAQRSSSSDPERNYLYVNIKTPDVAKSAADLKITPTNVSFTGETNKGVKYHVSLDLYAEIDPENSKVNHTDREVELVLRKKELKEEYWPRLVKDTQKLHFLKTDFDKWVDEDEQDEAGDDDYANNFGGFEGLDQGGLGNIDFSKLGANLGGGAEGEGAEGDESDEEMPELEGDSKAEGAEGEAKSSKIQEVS

In publication PMC10312964:

T1: GliT:GFP (Aspergillus fumigatus) (UniProt E9RAH5)
T1 sequence: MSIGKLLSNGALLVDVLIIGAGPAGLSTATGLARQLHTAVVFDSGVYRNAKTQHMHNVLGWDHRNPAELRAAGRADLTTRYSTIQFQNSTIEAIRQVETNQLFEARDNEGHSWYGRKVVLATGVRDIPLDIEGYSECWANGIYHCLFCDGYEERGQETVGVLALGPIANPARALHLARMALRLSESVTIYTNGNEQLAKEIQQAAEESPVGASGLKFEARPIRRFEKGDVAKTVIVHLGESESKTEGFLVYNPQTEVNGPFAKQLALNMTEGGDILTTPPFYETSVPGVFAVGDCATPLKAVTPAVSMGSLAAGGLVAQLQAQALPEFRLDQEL

B1: PtcB, type 2C protein phosphatase (PP2C) involved in dephosphorylation of SakA MAP kinase (enzyme, UniProt Q4WTH5 1-429)
chain: MRTCGTSSEGQDECCLYGLSAMQGWRISMEDAHAAVLDLQAKSTGGSEKPTDPDKRLAFFGVYDGHGGDKVALFAGENVHKIVAKQEAFAKGDIEQALKDGFLATDRAILEDPKYEEEVSGCTAAVSVISKNKIWVANAGDSRSVLGVKGRAKPLSFDHKPQNEGEKARISAAGGFVDFGRVNGNLALSRAIGDFEFKKSPELSPEQQIVTAYPDVTVHEVTDDDEFLVIACDGIWDCQSSQSVVEFVRRGIAAKQELYRICENMMDNCLASNSETGGVGCDNMTMIIIGLLNGKTKEEWYNQISERVANGDGPCAPPEYGKSEFRGPGIRNQFEETPDNYDLENDRSRGFSVRSGRIILLGDGTELIPEQNDEELFDQREENRDVTNHLQHDKAEETSTAANLSESPSSANKNSSGSGTEATEKSASS
B2: GliN, methyltransferase, encoded in the putative gliotoxin biosynthetic gene cluster (enzyme, UniProt Q4WMJ1 1-282)
chain: MTVLPDSENGYLLNYEDQEKRRMNMQHDLIKTYMGKLILAPLPFDQPNLRVLDSGTFNGLWLEDASTLLQSPTLVGTDVSPTAFPAKRPPNTEFHVQSISDPWPTEWRDSFDLVHQKLVIACVPPDEGRQALYRLIDLAKPGTGWVQFTEGSLEHLTPEQRKQYPVLARFQSLVAEMLPHFRWNPRPGKLVRQWLEEYGLQEVQEKVMEIPIGAGNPDPKLGEMAKQNMLEVVSNFRTAATRLPDGTGIRAEDFDPILRDIKVEFETVGGILRFNTVWGRRP
B3: GliG, glutathione S-transferase encoded in the gliotoxin biosynthetic gene cluster (enzyme, UniProt A4GYZ0 1-240)
chain: MSERPSDLVVNRLVLFVVKGTATSTHNTVKPLILLEELGVPHDIYVVEKVSAPWFSEINPHKMVPAILDRSPDGRDTLRAWESTSTLMYIADAYDKDGTLGGRNVQERSEINNWLTLHTAALGPTAKYWLYFYKLHPEKLPKTIEKLRSNITVQYDILERRLNEPGQQYLALKDRPTIADIATLPFAMKSTAELFGLEFEKWPKLQEWSVRMGEREAVKRAWQRVAGFGHGEKEYGMLEA

Tests used:
[1] = biological target: GtmA:GFP (Aspergillus fumigatus) (UniProt Q4X158); assay: affinity purification with mass spectrometry
[2] = biological target: T1, GliT:GFP (Aspergillus fumigatus); assay: affinity purification with mass spectrometry

| Molecule | binding [1] | binding [2] |
| --- | --- | --- |
| PphB, protein serine/threonine phosphatase activity (from UniProt Q4WM81) (enzyme) | binds | – |
| Calcium/calmodulin-dependent protein kinase (Afu2g13680) (from UniProt Q4X0F2) (enzyme) | binds | – |
| Lactoylglutathione lyase (Afu6g07940) (from UniProt Q4WN17) (enzyme) | – | binds |
| Serine hydroxymethyltransferase (Afu3g09320) (from UniProt Q4WXF4) (enzyme) | binds | binds |
| Calcium/calmodulin-dependent protein kinase (Afu2g03490) (from UniProt Q4WI09) (enzyme) | binds | binds |
| Glutathione peroxidase; peroxiredoxin (Afu3g12270) (from UniProt Q4WY97) (enzyme) | – | binds |
| Wos2, Hsp90 binding co-chaperone (from UniProt Q4WW00) | – | binds |
| B1 | binds | – |
| B2 | binds | binds |
| B3 | binds | – |

No constants are given. Whether binding was seen depends on the method and setting. In cells and extracts the contact can be indirect. A yes stands for co-enrichment or nearness to the bait. Other partners may have been found. For some of these results: Where a sequence is shown, tags or fusion partners need not be part of it.
